These are yes or no findings as the source states them, for the method shown. Binding calls can cover weak binding; strength is not graded here.
Target: GST-tagged CD95 intracellular domain (UniProt P25445)
Test: pull-down; reconstituted CD95 DISC: glutathione sepharose beads coated with purified GST-CD95-IcD (10 µg) incubated with r-FADD (5 µg), 16 h at 20 °C; both purified

By UniProt entry, the sequences of proteins in these tests, tags left out. Where a name states a change or a piece, a line headed by the entry shows the natural chain unless it says otherwise.
UniProt P25445: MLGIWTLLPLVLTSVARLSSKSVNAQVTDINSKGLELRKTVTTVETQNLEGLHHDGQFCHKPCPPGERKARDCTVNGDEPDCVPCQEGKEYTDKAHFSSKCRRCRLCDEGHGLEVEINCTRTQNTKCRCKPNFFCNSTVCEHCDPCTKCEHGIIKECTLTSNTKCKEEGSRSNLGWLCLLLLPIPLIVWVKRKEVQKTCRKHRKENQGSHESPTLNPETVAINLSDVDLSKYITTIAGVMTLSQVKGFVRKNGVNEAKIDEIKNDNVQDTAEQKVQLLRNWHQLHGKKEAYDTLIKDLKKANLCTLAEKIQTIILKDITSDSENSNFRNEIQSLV
UniProt Q13158: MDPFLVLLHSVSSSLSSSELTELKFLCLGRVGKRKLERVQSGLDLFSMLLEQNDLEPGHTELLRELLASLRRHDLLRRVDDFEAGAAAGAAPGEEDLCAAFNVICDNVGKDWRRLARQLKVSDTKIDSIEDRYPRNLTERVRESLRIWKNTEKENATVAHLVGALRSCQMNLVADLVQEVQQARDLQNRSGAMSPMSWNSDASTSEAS

For “recombinant FADD (from UniProt Q13158 1-208)”, the binding was “binds”.
